Reference: the supplement of paper PMC11438910
The list shows a part of the results. The signal is at background level for most entries.

What was measured:
Assay in all cases: fluorescence intensity of antibody binding to polysaccharide-coupled beads; higher = stronger binding
[1] = target: pneumococcal polysaccharide C-Poly-1
[2] = target: pneumococcal polysaccharide C-Poly-2
[3] = target: pneumococcal polysaccharide Pn1
[4] = target: pneumococcal polysaccharide Pn10A
[5] = target: pneumococcal polysaccharide Pn10B
[6] = target: pneumococcal polysaccharide Pn10C
[7] = target: pneumococcal polysaccharide Pn10F
[8] = target: pneumococcal polysaccharide Pn11A
[9] = target: pneumococcal polysaccharide Pn11B
[10] = target: pneumococcal polysaccharide Pn11C
[11] = target: pneumococcal polysaccharide Pn11D
[12] = target: pneumococcal polysaccharide Pn11F
[13] = target: pneumococcal polysaccharide Pn7A
[14] = target: pneumococcal polysaccharide Pn7B
[15] = target: pneumococcal polysaccharide Pn7C
[16] = target: pneumococcal polysaccharide Pn7F
[17] = target: pneumococcal polysaccharide Pn8
[18] = target: pneumococcal polysaccharide Pn9A
[19] = target: pneumococcal polysaccharide Pn9L
[20] = target: pneumococcal polysaccharide Pn9N
[21] = target: pneumococcal polysaccharide Pn9V
[22] = antibody concentration 0.1 ng/mL
[23] = antibody concentration 0.534724 ng/mL
[24] = antibody concentration 2.8593 ng/mL
[25] = antibody concentration 15.2894 ng/mL
[26] = antibody concentration 81.7561 ng/mL
[27] = antibody concentration 437.17 ng/mL
[28] = antibody concentration 2337.65 ng/mL
[29] = antibody concentration 12500 ng/mL

B1: 4-80.4 (protein)
chain 1: QVQLQESGPGLVKPSETLSLTCAVSGGSFSSYWWSWIRQSPGKGLEWIGEISGNSGSTNYNPSLKSRVTISKDASKNQFSLKLSSVTAADTAVYYCARYKEYWGQGVLVTVSS
chain 2: DVVMTQSPLSLLITPGQPASISCRSSQSLVHSNGNTYLSWYQQKPGQPPRRLLYEVSNRDSGVPDRFSGSGAGTDFTLKISRVEAEDVGVYYCGQGTHLPYSFGQGTKVEIK
B1 was tested, and the fluorescence intensity [1, 22] was 25.8 MFI, the fluorescence intensity [1, 23] was 25 MFI and the fluorescence intensity [1, 24] was 27 MFI. The fluorescence intensity [1, 25] was 25 MFI, the fluorescence intensity [1, 26] was 26.5 MFI and the fluorescence intensity [1, 27] was 28 MFI. It also gave a fluorescence intensity [1, 28] of 31.5 MFI, a fluorescence intensity [1, 29] of 90.5 MFI and a fluorescence intensity [2, 22] of 21.5 MFI. The fluorescence intensity [2, 23] was 21.5 MFI, the fluorescence intensity [2, 24] was 21.5 MFI and the fluorescence intensity [2, 25] was 19.5 MFI. The fluorescence intensity [2, 26] was 20 MFI, the fluorescence intensity [2, 27] was 21.2 MFI and the fluorescence intensity [2, 28] was 24.5 MFI. It also gave a fluorescence intensity [2, 29] of 70.5 MFI, a fluorescence intensity [3, 22] of 13 MFI and a fluorescence intensity [3, 23] of 13 MFI. The fluorescence intensity [3, 24] was 13 MFI, the fluorescence intensity [3, 25] was 13 MFI and the fluorescence intensity [3, 26] was 14.8 MFI. It also gave a fluorescence intensity [3, 27] of 14 MFI, a fluorescence intensity [3, 28] of 17 MFI and a fluorescence intensity [3, 29] of 27.5 MFI. It also gave a fluorescence intensity [4, 22] of 26.5 MFI, a fluorescence intensity [4, 23] of 26.8 MFI and a fluorescence intensity [4, 24] of 27.5 MFI. The fluorescence intensity [4, 25] was 26.8 MFI, the fluorescence intensity [4, 26] was 27 MFI and the fluorescence intensity [4, 27] was 27 MFI. It also gave a fluorescence intensity [4, 28] of 27 MFI, a fluorescence intensity [4, 29] of 34.5 MFI and a fluorescence intensity [5, 22] of 23.5 MFI. For the same binder, the fluorescence intensity [5, 23] was 25 MFI, the fluorescence intensity [5, 24] was 24.5 MFI and the fluorescence intensity [5, 25] was 23.5 MFI. For the same binder, the fluorescence intensity [5, 26] was 24 MFI, the fluorescence intensity [5, 27] was 26 MFI and the fluorescence intensity [5, 28] was 24 MFI. The fluorescence intensity [5, 29] was 31 MFI, the fluorescence intensity [6, 22] was 15.5 MFI and the fluorescence intensity [6, 23] was 17 MFI. For the same binder, the fluorescence intensity [6, 24] was 17.2 MFI, the fluorescence intensity [6, 25] was 17.5 MFI and the fluorescence intensity [6, 26] was 17.5 MFI. It also gave a fluorescence intensity [6, 27] of 17.5 MFI, a fluorescence intensity [6, 28] of 18.5 MFI and a fluorescence intensity [6, 29] of 18.8 MFI. It also gave a fluorescence intensity [7, 22] of 20 MFI, a fluorescence intensity [7, 23] of 20.5 MFI and a fluorescence intensity [7, 24] of 19.5 MFI. The fluorescence intensity [7, 25] was 19.5 MFI, the fluorescence intensity [7, 26] was 20 MFI and the fluorescence intensity [7, 27] was 18.8 MFI. For the same binder, the fluorescence intensity [7, 28] was 21 MFI, the fluorescence intensity [7, 29] was 23 MFI and the fluorescence intensity [8, 22] was 25 MFI. The fluorescence intensity [8, 23] was 30.5 MFI, the fluorescence intensity [8, 24] was 25.8 MFI and the fluorescence intensity [8, 25] was 27.5 MFI. For the same binder, the fluorescence intensity [8, 26] was 29 MFI, the fluorescence intensity [8, 27] was 30.2 MFI and the fluorescence intensity [8, 28] was 31.5 MFI. For the same binder, the fluorescence intensity [8, 29] was 39.5 MFI, the fluorescence intensity [9, 22] was 25.5 MFI and the fluorescence intensity [9, 23] was 27.5 MFI. For the same binder, the fluorescence intensity [9, 24] was 26 MFI, the fluorescence intensity [9, 25] was 27.2 MFI and the fluorescence intensity [9, 26] was 29.5 MFI. For the same binder, the fluorescence intensity [9, 27] was 29.5 MFI, the fluorescence intensity [9, 28] was 30.8 MFI and the fluorescence intensity [9, 29] was 36.5 MFI. For the same binder, the fluorescence intensity [10, 22] was 21.5 MFI, the fluorescence intensity [10, 23] was 21.2 MFI and the fluorescence intensity [10, 24] was 21.5 MFI. For the same binder, the fluorescence intensity [10, 25] was 22.5 MFI, the fluorescence intensity [10, 26] was 22.5 MFI and the fluorescence intensity [10, 27] was 23.2 MFI. It also gave a fluorescence intensity [10, 28] of 28.2 MFI, a fluorescence intensity [10, 29] of 76.8 MFI and a fluorescence intensity [11, 22] of 25 MFI. The fluorescence intensity [11, 23] was 22 MFI, the fluorescence intensity [11, 24] was 23 MFI and the fluorescence intensity [11, 25] was 25.2 MFI. It also gave a fluorescence intensity [11, 26] of 22.2 MFI, a fluorescence intensity [11, 27] of 24.8 MFI and a fluorescence intensity [11, 28] of 26 MFI. It also gave a fluorescence intensity [11, 29] of 49.2 MFI, a fluorescence intensity [12, 22] of 15.5 MFI and a fluorescence intensity [12, 23] of 15.5 MFI.

B2: 4-80.1 (protein)
chain 1: QVQLQESGPGLVKPSETLSLTCAVSGIPISTYWWSWIRQTPEKGLEWIGEIDGNGGGTNYNPSLQSRVTFSKDASKNQFSLRLNSVTAADTAVFYCARLWGNAYWGQGVLVTVSS
chain 2: DVVMTQSPLSLPINPGQPASISCRSSQSLVYSDGKTYLTWYQQKPGQPPRRLIYQVSKRDSGVPDRFSGSGAGTDFTLKISRVESEDVGIYYCLQGTHLPYTFGQGTKVEIK
B2 was tested, and the fluorescence intensity [13, 24] was 19.5 MFI, the fluorescence intensity [13, 25] was 19.8 MFI and the fluorescence intensity [13, 26] was 22 MFI. For the same binder, the fluorescence intensity [13, 27] was 30.8 MFI, the fluorescence intensity [13, 28] was 49.5 MFI and the fluorescence intensity [13, 29] was 108 MFI. The fluorescence intensity [14, 22] was 16 MFI, the fluorescence intensity [14, 23] was 15.8 MFI and the fluorescence intensity [14, 24] was 15.2 MFI. For the same binder, the fluorescence intensity [14, 25] was 19 MFI, the fluorescence intensity [14, 26] was 23.8 MFI and the fluorescence intensity [14, 27] was 151 MFI. For the same binder, the fluorescence intensity [14, 28] was 493 MFI, the fluorescence intensity [14, 29] was 856 MFI and the fluorescence intensity [15, 22] was 15.5 MFI. It also gave a fluorescence intensity [15, 23] of 15.8 MFI, a fluorescence intensity [15, 24] of 16.5 MFI and a fluorescence intensity [15, 25] of 18.5 MFI. It also gave a fluorescence intensity [15, 26] of 55 MFI, a fluorescence intensity [15, 27] of 484 MFI and a fluorescence intensity [15, 28] of 1100 MFI. The fluorescence intensity [15, 29] was 1540 MFI, the fluorescence intensity [16, 22] was 14 MFI and the fluorescence intensity [16, 23] was 15 MFI. The fluorescence intensity [16, 24] was 15 MFI, the fluorescence intensity [16, 25] was 16.5 MFI and the fluorescence intensity [16, 26] was 27 MFI. For the same binder, the fluorescence intensity [16, 27] was 87 MFI, the fluorescence intensity [16, 28] was 214 MFI and the fluorescence intensity [16, 29] was 356 MFI. The fluorescence intensity [17, 22] was 22 MFI, the fluorescence intensity [17, 23] was 23.5 MFI and the fluorescence intensity [17, 24] was 22.2 MFI. The fluorescence intensity [17, 25] was 24.5 MFI, the fluorescence intensity [17, 26] was 25 MFI and the fluorescence intensity [17, 27] was 43 MFI. It also gave a fluorescence intensity [17, 28] of 74.5 MFI, a fluorescence intensity [17, 29] of 120 MFI and a fluorescence intensity [18, 22] of 19.2 MFI. For the same binder, the fluorescence intensity [18, 23] was 18.2 MFI, the fluorescence intensity [18, 24] was 20.5 MFI and the fluorescence intensity [18, 25] was 21.5 MFI. For the same binder, the fluorescence intensity [18, 26] was 31 MFI, the fluorescence intensity [18, 27] was 106 MFI and the fluorescence intensity [18, 28] was 213 MFI. The fluorescence intensity [18, 29] was 370 MFI, the fluorescence intensity [19, 22] was 17 MFI and the fluorescence intensity [19, 23] was 16.8 MFI. The fluorescence intensity [19, 24] was 16.2 MFI, the fluorescence intensity [19, 25] was 16.5 MFI and the fluorescence intensity [19, 26] was 18.5 MFI. For the same binder, the fluorescence intensity [19, 27] was 44.5 MFI, the fluorescence intensity [19, 28] was 141 MFI and the fluorescence intensity [19, 29] was 313 MFI. It also gave a fluorescence intensity [20, 22] of 15.8 MFI, a fluorescence intensity [20, 23] of 16.5 MFI and a fluorescence intensity [20, 24] of 15.8 MFI. The fluorescence intensity [20, 25] was 19 MFI, the fluorescence intensity [20, 26] was 51.5 MFI and the fluorescence intensity [20, 27] was 458 MFI. The fluorescence intensity [20, 28] was 1100 MFI, the fluorescence intensity [20, 29] was 1540 MFI and the fluorescence intensity [21, 22] was 16.8 MFI. The fluorescence intensity [21, 23] was 16.8 MFI, the fluorescence intensity [21, 24] was 24.5 MFI and the fluorescence intensity [21, 25] was 107 MFI. The fluorescence intensity [21, 26] was 552 MFI, the fluorescence intensity [21, 27] was 1670 MFI and the fluorescence intensity [21, 28] was 2240 MFI. The fluorescence intensity [21, 29] was 2450 MFI.
